The other results are listed elsewhere or left out.
B1: il2ra_site1_3nfp_sap_16_mot_HHH_b1_02896_af2_000000287_0001_1_17_H_._HHH_b2_04362_0001_0000100002_0000001_0_0001 (protein)
chain: SEEEKKEEISELLGVPPEEVERAVENLARRYRFPPEEALIILLRAARRAEKNPSARFAVENLLKI
B2: il2ra_site2_2erj_sap_23_mot_HHH_b2_00138_000000178_0001_20_37_H_._HHH_b2_00033_0001_0000500016_0000001_0_0001 (protein)
chain: SSSSYEVLKRVMELLAEAMRAAWEGDPELVRELLEEAKELAEEHDNEDLERLIEEVEHNLRSSSS
B3: il2ra_site2_2erj_sap_24_mot_HHH_b1_03609_af2_000000077_0001_42_55_H_._HHH_b1_06534_0001_0000200004_0000001_0_0001 (protein)
chain: SSSSSEEEIRELIEQAKELLEEGNPEEALKILLRAFHLAYQLGDEELIILVSELAAEIARQSSSS
B4: il2ra_site1_3nfp_sap_13_mot_HHH_b1_00258_000000025_0001_42_56_H_._HHH_b2_02568_0001_0000100003_0000001_0_0001 (protein)
chain: SSSSDETRRRTQELMKRAREASRQGDDEEAEELIREAIEIAEEVNDEIAVKFLEDLLRLLRSSSS
B5: il2ra_site2_2erj_sap_19_mot_e1dd4851c59bc1cdde016f988f6856bd_0001_1_000000110_0001_52_65_H_._HHH_b1_04086_af2_0001_0000100008_0000001_1_0001 (protein)
chain: SSSSSSDEYEEEVEELLEEAKKIEDLHRVYELAVRALHIAAKNQDQELQREVAKVAEELSSSSSS
B6: il2ra_site1_3nfp_normal_mot_HHH_b1_08723_000000044_0001_1_15_H_._HHH_b2_03161_0001_0000300014_0000001_1 (protein)
chain: SSSSDRSERLEELFRELFEAAQRDDPELIEELARELLELARENNSKALERSAEWALEWVNSSSSS
B7: il2ra_site2_2erj_normal_mot_HHH_b2_07875_af2_000000009_0001_3_16_H_._eb5a5eebac1e5153f932cc6c3f4b2787_0001_af2_0001_0000400006_0000001_0_af2pred_0001_1_af2pred_ … (protein)
chain: SLLRRIARLLLELASLSPEATEVVLEISELLEEGDKEQIKRLLEELLELLGDPKVEELIELIERL
B8: il2ra_site2_3nfp_normal_mot_ems_p1-15H-GBL-16H-GBL-14H_0089_0001_0001_0001_af2_000000072_0001_19_33_H_._HHH_b1_04641_0001_0000300033_0000001_0 (protein)
chain: SSSSDEEEEEVERLLKRIEELIKNGNPEEARELLRRVTHLAYELRDFELFARVAELALLLASSSS
B9: il2ra_site1_2b5i_normal_mot_HHH_b1_05188_af2_000000065_0001_43_56_H_._HHH_b1_02449_af2_0001_0000400038_0000001_0_af2pred_0001_af2pred (protein)
chain: SSSSSDEDEEVLEVYRQASRAYSNGNPEEAEELLREALKLAEEANNPVAVEELRRFLERLSSSSS
B10: il2ra_site2_3nfp_normal_mot_HHH_b1_07095_000000265_0001_1_20_H_._HHH_b2_06077_af2_0001_0000200003_0000001_0 (protein)
chain: SSSSDIEEEVEKLLEKAKELLEEGDEEEARRALARAAHLAAELRDFELFALVNEVLELLGSSSSS
B11: il2ra_site1_2b5i_normal_mot_HHH_b1_02271_000000068_0001_1_16_H_._HHH_b1_04985_0001_0000600019_0000001_0_af2pred_dldesign_0_af2pred (protein)
chain: SSSSSSRREALLEAEKLYKESFKVSPEEAKELLKKLKEIAEKYKDPTIAKAIEDLEYFLKSSSSS
B12: il2ra_site2_3nfp_normal_mot_HHH_b2_07065_af2_000000058_0001_38_52_H_._HHH_b2_01690_0001_0000300026_0000001_0 (protein)
chain: SSSSDDREEHLRAALLLLEEALKEGNEELFRRIAELIEKAAEDAKDEEVEERVRELLEEFDSSSS
B13: il2ra_site1_2b5i_normal_mot_HHH_b1_07881_af2_000000049_0001_1_19_H_._HHH_b2_01648_af2_0002_0000300029_0000001_0_af2pred_0001_af2pred (protein)
chain: SSSSDEFERLLELYREASRLFRNGNPEEARELLEEAEELAKELGDELARKQLRHLLERLRSSSSS
B14: il2ra_site1_3nfp_normal_mot_40ac32ce855e0fd9c7bcc7eb247393e9_0001_000000113_0001_1_14_H_._HHH_b1_06808_af2_0001_0000600035_0000001_0 (protein)
chain: SSSSSDAVEYAVEALVKDFNLSEEQKEELEELAEELERRGVNAREVFRILLERAKELANSSSSSS
B15: il2ra_site2_3nfp_sap_20_mot_HHH_b2_08245_000000023_0001_41_55_H_._HHH_b2_02790_0001_0000100006_0000001_0_0001 (protein)
chain: SSSSSDEEEERVEELLERAKHIEDDEERRRLLAEAAHLAFENNNSELFFAVAEVLFELEQSSSSS
B16: il2ra_site1_3nfp_sap_12_mot_HHH_b2_05615_000000234_0001_23_39_H_._HHH_b1_03367_0001_0000300010_0000001_0_0001 (protein)
chain: SSSDREEVAEEVVRRLVEELGLDRAAKRALERAAEKAIEMGFSPEEIEKALEDAARMFRRIVSSS
B17: il2ra_site1_2b5i_normal_mot_HHH_b2_04910_000000118_0001_1_19_H_._HHH_b1_02796_0001_0000200016_0000001_0_af2pred_dldesign_0_af2pred (protein)
chain: SSSSSKGEEIRRLIREADALYKKGDPRAIDVLERALELAKEAKMPLDVKMVESALKQLRVESSSS
B18: il2ra_site1_1z92_normal_mot_01209686ea234b34325f918445e6eade_0001_af2_000000154_0001_18_33_H_._a4d94f43bc0d423f3d0edd362bd39fea_0001_af2_0001_0000200009_0000001 … (protein)
chain: DLEEEIRRVAEELGIPPEELEVFEKDLKAVEKLVGDPELALKMLLNAAKKAGNEELFQLAELVLK

Target: il2ra, P01589
Test: yeast display titration

Apparent Kd, inactive:
B1 no binding seen, B2 no binding seen, B3 no binding seen, B4 no binding seen, B5 no binding seen, B6 no binding seen, B7 no binding seen, B8 no binding seen, B9 no binding seen, B10 no binding seen, B11 no binding seen, B12 no binding seen, B13 no binding seen, B14 no binding seen, B15 no binding seen, B16 no binding seen, B17 no binding seen, B18 no binding seen
